Data: patent US20150023989A1, “NEW ANTIBODY DRUG CONJUGATES (ADCS) AND THE USE THEREOF” (SEATTLE GENETICS, INC., priority 2011, published 2015)
These are yes or no findings as the source states them, for the method shown. Some binding calls cover weakened binding; strength is not graded here.

The chains behind the UniProt entries cited, without tags or fusion partners. Where a name states a change or a piece, a line headed by the entry shows the natural chain unless it says otherwise. A line that says so, or that is headed by a name, gives the form on record, which may keep a tag or linker.
mFGFR2β-Fc (IIIb) (P21803, form named): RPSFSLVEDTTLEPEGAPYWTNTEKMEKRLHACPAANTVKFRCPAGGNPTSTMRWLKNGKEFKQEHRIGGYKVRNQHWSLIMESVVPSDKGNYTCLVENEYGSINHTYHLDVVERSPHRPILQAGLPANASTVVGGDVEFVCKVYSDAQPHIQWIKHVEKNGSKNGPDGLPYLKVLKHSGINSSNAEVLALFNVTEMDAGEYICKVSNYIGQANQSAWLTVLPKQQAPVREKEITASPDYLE

Target: mFGFR2β-Fc (IIIb) (Mouse) (UniProt P21803)
Assay: ELISA; biotinylated Fc fusion protein on streptavidin plate, Fab at 1 µg/ml; signal against TRAIL-Fc wells (+++: ratio >5)

binding: binds
B1: parental Fab fragment M048-D01 (Fab, V domains shown)
VH: EVQLLESGGGLVQPGGSLRLSCAASGFTFSSYAMSWVRQAPGKGLEWVSAISGSGTSTYYADSVKGRFTISRDNSKNTLYLQMNSLRAEDTAVYYCARVRYNWNHGDWFDPWGQGTLVTVSS
VL: QSVLTQPPSASGTPGQRVTISCSGSSSNIGNNYVSWYQQLPGTAPKLLIYENYNRPAGVPDRFSGSKSGTSASLAISGLRSEDEADYYCSSWDDSLNYWVFGGGTKLTVL
